Reference: patent US20130157945A1
These are yes or no findings as the source states them, for the method shown. For part of these data: Binding seen in cells or lysates may run through a third protein. Some entries that bind do so weakly or less than the wild type.

By UniProt entry, the sequences of proteins in these tests, tags left out. Where a name states a change or a piece, a line headed by the entry shows the natural chain unless it says otherwise. Residues count along the entry.
UniProt P20333: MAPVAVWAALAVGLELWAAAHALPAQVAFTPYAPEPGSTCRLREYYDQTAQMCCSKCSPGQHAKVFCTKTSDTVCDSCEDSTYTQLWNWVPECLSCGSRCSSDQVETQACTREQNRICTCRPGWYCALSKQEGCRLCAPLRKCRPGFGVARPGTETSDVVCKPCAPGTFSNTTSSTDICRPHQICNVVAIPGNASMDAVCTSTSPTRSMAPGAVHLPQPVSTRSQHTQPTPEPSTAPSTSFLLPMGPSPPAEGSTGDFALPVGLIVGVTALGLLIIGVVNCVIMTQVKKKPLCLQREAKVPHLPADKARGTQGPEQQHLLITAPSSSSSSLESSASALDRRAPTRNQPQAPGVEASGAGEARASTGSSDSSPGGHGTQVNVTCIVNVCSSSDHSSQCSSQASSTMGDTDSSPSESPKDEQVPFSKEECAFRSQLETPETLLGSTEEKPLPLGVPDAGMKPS
TNFR2 (endogenous, human chondrocytes): residues 23-461 of P20333
extracellular domain of TNFR2 (TNFR2ECD), recombinant, R & D System: residues 23-257 of P20333
UniProt P19438, residues 30-211: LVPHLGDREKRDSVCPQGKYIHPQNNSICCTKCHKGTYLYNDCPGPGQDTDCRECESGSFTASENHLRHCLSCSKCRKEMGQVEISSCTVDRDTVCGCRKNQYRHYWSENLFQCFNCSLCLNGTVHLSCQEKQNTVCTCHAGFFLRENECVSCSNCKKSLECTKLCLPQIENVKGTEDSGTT
UniProt P28799: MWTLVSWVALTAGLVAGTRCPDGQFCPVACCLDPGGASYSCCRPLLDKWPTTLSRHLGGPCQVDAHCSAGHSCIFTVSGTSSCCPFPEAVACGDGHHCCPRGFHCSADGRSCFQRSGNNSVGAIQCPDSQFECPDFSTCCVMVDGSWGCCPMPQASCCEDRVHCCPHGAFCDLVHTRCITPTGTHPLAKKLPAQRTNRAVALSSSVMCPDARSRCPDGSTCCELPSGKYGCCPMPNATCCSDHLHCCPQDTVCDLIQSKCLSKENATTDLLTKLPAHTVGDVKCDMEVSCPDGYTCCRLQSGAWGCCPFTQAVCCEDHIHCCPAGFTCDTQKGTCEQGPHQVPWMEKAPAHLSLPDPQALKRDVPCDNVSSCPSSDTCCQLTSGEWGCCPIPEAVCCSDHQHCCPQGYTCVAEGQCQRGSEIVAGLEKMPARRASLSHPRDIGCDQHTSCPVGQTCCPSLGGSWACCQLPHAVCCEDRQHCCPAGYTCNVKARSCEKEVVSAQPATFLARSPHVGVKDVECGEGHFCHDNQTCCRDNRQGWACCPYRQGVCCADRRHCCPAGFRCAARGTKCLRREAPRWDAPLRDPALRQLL

Key:
[1] = target: TNFR2 (endogenous, human chondrocytes) (human) (UniProt P20333); experiment: co-immunoprecipitation with anti-TNFR2, immunoblot with anti-GEP
[2] = target: TNFR2 (endogenous, human chondrocytes) (human) (UniProt P20333); experiment: co-immunoprecipitation with anti-TNFR2, immunoblot with anti-GEP (FIG. 2B)
[3] = target: extracellular domain of TNFR1 (TNFR1ECD), recombinant, R & D System (UniProt P19438); experiment: solid-phase binding assay (FIG. 3)
[4] = target: extracellular domain of TNFR2 (TNFR2ECD), recombinant, R & D System (UniProt P20333); experiment: solid-phase binding assay (FIG. 3)
[5] = target: extracellular domain of TNFR1 (TNFR1ECD), recombinant, R & D System (UniProt P19438); experiment: solid-phase binding assay, 500 ng GEP coated, 5-500 ng TNFR1ECD, detected with anti-TNFR1 and HRP secondary antibody
[6] = target: extracellular domain of TNFR2 (TNFR2ECD), recombinant, R & D System (UniProt P20333); experiment: solid-phase binding assay, 500 ng GEP coated, 5-500 ng TNFR2ECD, detected with anti-TNFR2 and HRP secondary antibody

binding [1] | binding [2] | binding [3] | binding [4] | binding [5] | binding [6] | Substance
binds | binds |  |  |  |  | GEP (endogenous, extracts of primary human chondrocytes) (from UniProt P28799 18-593) (ligand)
 |  | binds | binds | binds | binds | recombinant GEP (granulin/epithelin precursor) (from UniProt P28799 18-593) (ligand)
